Binding data for 2 molecules are collected here from article doi:10.1101/2020.01.05.895219.

Assay in all cases: cross-linking
Experiment [1] concerns the target T1, ExbB (E. coli (endogenous in W3110)) (UniProt P0ABU7).
T1 sequence: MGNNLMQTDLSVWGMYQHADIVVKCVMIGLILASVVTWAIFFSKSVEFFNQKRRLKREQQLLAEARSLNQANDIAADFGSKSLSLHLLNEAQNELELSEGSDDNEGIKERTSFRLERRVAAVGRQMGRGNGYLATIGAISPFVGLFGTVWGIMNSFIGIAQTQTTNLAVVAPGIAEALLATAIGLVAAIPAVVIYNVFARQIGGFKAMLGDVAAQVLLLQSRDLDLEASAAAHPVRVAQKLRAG

In experiment [2] the target is ExbD (E. coli (endogenous in W3110)) (UniProt P0ABV2).
The target in experiment [3] is TonB (E. coli (endogenous in W3110)) (UniProt P02929).
Experiment [4] deals with T2, FepA (E. coli (endogenous in W3110)), P05825.
T2 chain: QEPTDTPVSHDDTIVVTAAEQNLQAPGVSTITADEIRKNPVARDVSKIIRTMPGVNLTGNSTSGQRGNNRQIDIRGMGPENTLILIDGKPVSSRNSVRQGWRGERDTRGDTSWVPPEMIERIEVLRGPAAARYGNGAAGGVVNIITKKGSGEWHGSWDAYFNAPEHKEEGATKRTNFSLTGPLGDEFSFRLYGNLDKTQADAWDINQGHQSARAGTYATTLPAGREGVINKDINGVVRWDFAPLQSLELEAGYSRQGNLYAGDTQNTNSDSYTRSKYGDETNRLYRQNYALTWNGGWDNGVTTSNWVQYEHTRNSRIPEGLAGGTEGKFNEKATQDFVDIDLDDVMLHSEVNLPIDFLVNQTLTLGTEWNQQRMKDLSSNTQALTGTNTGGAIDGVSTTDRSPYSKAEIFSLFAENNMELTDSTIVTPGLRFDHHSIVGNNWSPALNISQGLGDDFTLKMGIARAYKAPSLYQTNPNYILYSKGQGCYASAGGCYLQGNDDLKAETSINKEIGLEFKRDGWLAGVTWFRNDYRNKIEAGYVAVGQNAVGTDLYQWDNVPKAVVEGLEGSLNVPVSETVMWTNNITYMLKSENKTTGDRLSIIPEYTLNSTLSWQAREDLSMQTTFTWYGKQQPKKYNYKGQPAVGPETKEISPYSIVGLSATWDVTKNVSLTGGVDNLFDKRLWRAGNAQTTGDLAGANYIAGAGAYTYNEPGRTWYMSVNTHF
The following applies: remark: other sources report otherwise.

No constants are given. Whether binding was seen depends on the method and setting. Binding seen in cells or lysates may run through a third protein. Some results given as binding are weak or reduced against the parent protein; the word gives no strength.

B1: ExbD (protein, UniProt P0ABV2 1-141)
chain: MAMHLNENLDDNGEMHDINVTPFIDVMLVLLIIFMVAAPLATVDVKVNLPASTSTPQPRPEKPVYLSVKADNSMFIGNDPVTDETMITALNALTEGKKDTTIFFRADKTVDYETLMKVMDTLHQAGYLKIGLVGEETAKAK
B1: the binding entry in experiment [1], in experiment [2] and in experiment [3] was “binds” each time.

B2: TonB, P02929 1-239 (protein)
chain: MTLDLPRRFPWPTLLSVCIHGAVVAGLLYTSVHQVIELPAPAQPISVTMVTPADLEPPQAVQPPPEPVVEPEPEPEPIPEPPKEAPVVIEKPKPKPKPKPKPVKKVQEQPKRDVKPVESRPASPFENTAPARLTSSTATAATSKPVTSVASGPRALSRNQPQYPARAQALRIEGQVKVKFDVTPDGRVDNVQILSAKPANMFEREVKNAMRRWRYEPGKPGSGIVVNILFKINGTTEIQ
With B2, in experiment [4], the binding result is reported as “binds”.
